The values below come from the supplement of paper PMC8256030.

“And” between values parts separate entries of the source, which are not always exact repeats. Identical values can stand only once. The list shows a part of the results. Single values are uncertain here, since repeats match poorly.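 HEK293T cells were given each compound shortly before transfection with a reporter in which red mCherry is followed by the SARS-CoV-2 frameshift element and then GFP in the −1 frame, so GFP appears only after frameshifting.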

In assay [1] the test system is SARS-CoV-2 -1 PRF reporter mCherry-FSE-GFP(-1). Briefly: mCherry (red) intensity as percent of control; higher = higher upstream reporter expression. As to conditions: 10 µM; 24 h; HEK293T.
Assay [2] shares this test system. Put plainly: percent effect, decrease of GFP/mCherry ratio (-1 PRF reporter) relative to controls; higher = stronger frameshift inhibition. As to conditions: 10 µM; 24 h; HEK293T.

As to `CC(C)(S)[C@@H](N)C(=O)O` [penicillamine], the mCherry in assay [1] came to 114%. Moreover, the percent effect in assay [2] was -15.7%.
On to `COc1cc2nc(N3CCN(C(=O)C4COc5ccccc5O4)CC3)nc(N)c2cc1OC` (stereo unspecified) [doxazosin], for which the mCherry in assay [1] is 61.8% and 85.1%. Also, in assay [2], the percent effect was -5.6% and -1.91%.
In assay [1], `C[C@@H]1CCO[C@H]2Cn3cc(C(=O)NCc4ccc(F)cc4F)c(=O)c(O)c3C(=O)N12` [Dolutegravir] showed a mCherry of 93.2%. The percent effect in assay [2] was -7.01%.
Taken in the same sequence, the figures for `CC1CCN(CCCC(=O)c2ccc(F)cc2)CC1` [melperone] were 120% and -6.88%.
Taken in the same sequence, the figures for `CC(C)NCC(O)c1ccc(NS(C)(=O)=O)cc1` (stereo unspecified) were 108% and -0.612%.
Compound `Cc1ccc2c(Br)cc(Br)c(OC(=O)c3ccccc3)c2n1` [broxaldine] showed a mCherry in assay [1] of 127%. Also, the percent effect in assay [2] was -0.413%.
On the same counts, the results for `CN1C(C(=O)Nc2nccs2)=C(O)c2ccccc2S1(=O)=O` [sudoxicam] are 70% and -1.26%.
Taken in the same sequence, the figures for `CC(C)C[C@H]1C(=O)O[C@H](Cc2ccc(N3CCOCC3)cc2)C(=O)N(C)[C@@H](CC(C)C)C(=O)O[C@H](C)C(=O)N(C)[C@@H](CC(C)C)C(=O)O[C@H](Cc2ccc(N3CCOCC3)cc2)C(=O)N(C)[C@@H](CC(C)C)C(=O)O[C@H](C)C(=O)N1C` [emodepside] were 93.7% and -4.09%.
Taken in the same sequence, the figures for `CO/N=C(\C(=O)N[C@@H]1C(=O)N2C(C(=O)O)=C(COC(N)=O)CS[C@H]12)c1ccco1` were 103% and -2.82%.
As for `CN(C)CCCSc1ccccc1NC(=O)/C=C/c1ccccc1` [Cinanserin], the mCherry in assay [1] is 69.6%. In addition, the percent effect in assay [2] is 9.32%.
Take `N.N.O=C([O-])C[O-].[Pt+2]` [Nedaplatin]: the mCherry in assay [1] amounted to 104%. Further, in assay [2], the percent effect is -1.82%.
On the same counts, the results for `O=C(O[C@@H]1C[C@@H]2C[C@H]3C[C@H](C1)N2CC3=O)c1c[nH]c2ccccc12` [Dolasetron] are 106% and -1.68%.
As to `C#C[C@]1(O)CC[C@H]2[C@@H]3CCC4=CC(=NO)CC[C@@H]4[C@H]3CC[C@@]21CC` (mixture of isomers) [norelgestromin], the mCherry in assay [1] turned out to be 76.3%. In assay [2], the percent effect worked out at 4.08%.
